Binding data for two substances are collected here from patent US20020155563A1.

Sequences of proteins named here, by UniProt entry; tags and fusion partners are left off. A change or cut given only in a name is not applied to a line headed by its entry.
UniProt P62993: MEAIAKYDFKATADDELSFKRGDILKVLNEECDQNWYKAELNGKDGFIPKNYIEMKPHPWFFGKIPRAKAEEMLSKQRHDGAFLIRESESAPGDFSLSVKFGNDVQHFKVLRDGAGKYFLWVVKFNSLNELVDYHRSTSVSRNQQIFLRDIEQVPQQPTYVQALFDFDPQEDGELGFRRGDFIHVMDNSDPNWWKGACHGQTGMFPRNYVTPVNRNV

Results are given in words; binding and its absence hold for the method and conditions named. For part of these data: In cells and extracts the contact can be indirect. Some entries that bind do so weakly or less than the wild type. Tags and fused reporters may be left off the sequences shown.

Assay [1] deals with T1, His-MIST-fl (poly-histidine tagged MIST full length, residues 1-443) (human) (UniProt Q7Z7G1).
T1 sequence: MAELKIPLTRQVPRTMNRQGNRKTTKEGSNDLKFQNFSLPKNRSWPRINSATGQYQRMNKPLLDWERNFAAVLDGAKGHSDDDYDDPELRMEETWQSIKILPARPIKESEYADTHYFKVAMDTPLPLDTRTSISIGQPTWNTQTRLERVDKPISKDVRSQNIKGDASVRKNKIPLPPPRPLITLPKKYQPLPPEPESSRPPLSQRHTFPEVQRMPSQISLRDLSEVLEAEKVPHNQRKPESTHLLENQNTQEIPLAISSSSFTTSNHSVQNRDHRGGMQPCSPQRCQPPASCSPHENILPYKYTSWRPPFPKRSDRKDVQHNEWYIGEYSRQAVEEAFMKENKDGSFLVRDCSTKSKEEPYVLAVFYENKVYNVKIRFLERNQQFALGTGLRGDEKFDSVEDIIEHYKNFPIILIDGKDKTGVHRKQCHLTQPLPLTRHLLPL
Description: pull-down from Jurkat lysates on Talon beads, anti-Grb2 immunoblot.

Assay [2] deals with T2, His-MIST-PR (poly-histidine tagged MIST proline-rich domain, residues 160-320) (human) (UniProt Q7Z7G1).
T2 sequence: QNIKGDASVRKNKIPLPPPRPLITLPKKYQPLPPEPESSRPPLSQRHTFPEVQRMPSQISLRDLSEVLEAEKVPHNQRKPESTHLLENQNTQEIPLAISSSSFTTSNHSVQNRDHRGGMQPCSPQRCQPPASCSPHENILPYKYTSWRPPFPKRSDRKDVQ
The description is as above.

In assay [3] the target is T2, His-MIST-PR (poly-histidine tagged MIST proline-rich domain, residues 160-320) (human). Description: ELISA, His-MIST proteins coated at 4 µg/ml, GST fusion detected with anti-GST antiserum.

For “Grb2 (adapter protein, from Jurkat T cell lysates) (from UniProt P62993 1-217)”, the binding entry in assay [1] and in assay [2] was “binds” each time.
In the case of “recombinant N-terminal SH3 domain of Grb2 (GST-SH3 fusion protein) (from UniProt P62993 1-58)”, in assay [3], the binding result was “binds”.
